Data reported in PubChem BioAssay AID1794845 (National Center for Advancing Translational Sciences (NCATS), 2023).
Screen size: about 6,900 compounds; fewer than 10 were called active. Calls follow the shape of the dose curve; as a rule, active = well fitted curve in the direction sought with a large enough effect; inconclusive = small, poorly fitted or top-dose-only effect, or another doubt; inactive = no such curve, though single readings can be large or run the other way. The list shows a part of the results.

The chains behind the UniProt entries cited, without tags or fusion partners. Where a name states a change or a piece, a line headed by the entry shows the natural chain unless it says otherwise.
UniProt C7C422: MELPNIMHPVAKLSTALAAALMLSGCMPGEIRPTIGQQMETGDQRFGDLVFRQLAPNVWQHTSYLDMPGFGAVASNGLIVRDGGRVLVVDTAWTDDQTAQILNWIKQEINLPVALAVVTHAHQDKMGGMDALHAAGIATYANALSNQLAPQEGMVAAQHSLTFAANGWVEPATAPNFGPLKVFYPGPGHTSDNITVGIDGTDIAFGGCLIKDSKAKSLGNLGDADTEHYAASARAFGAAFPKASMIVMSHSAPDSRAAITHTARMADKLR

target: Metallo-beta-lactamase type 2 (Klebsiella pneumoniae) (UniProt C7C422); test: qHTS to identify inhibitors of the New Delhi Metallo-beta-lactamase (NDM): primary screen against the NCATS Gemini Collection; conditions: NDM-1 enzyme, meropenem hydrolysis, absorbance 300 nm; at 38.4 µM (top of the series) unless noted; also: % of control where 0% means no effect
Summary of the method: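 Meropenem hydrolysis (50 uM final) by 2 nM NDM-1 read as 300 nm absorbance after 30 min, following >30 min compound–enzyme preincubation in HEPES pH 7.0 with 1 uM ZnSO4 and 0.01% Tween20.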

Activity % (negative = inhibition), inactive:
Cc1ccc(C)c(OCC(=O)N[C@H]2CCOC[C@H]2C2CCOCC2)c1C -0.0546%
Cc1cccc(CN2CC(Oc3cccc(C(=O)NCC4CC4)c3)C2)c1 2.87%
CN1C(=O)C2(CCN(Cc3cccn3C)C2)c2ccccc21 (stereo not drawn) 27.3% [at 57.5 µM]
Cn1ccnc1CN1CCOC[C@H](Oc2ccc(C(F)(F)F)cc2)C1 20.7% [at 57.5 µM]
O=C([C@@H]1C[C@H](Oc2cccnc2)CN1S(=O)(=O)c1cccs1)N1CCCC1 4.57%
CS(=O)(=O)c1ccc(N2CCN(CC3(O)CNCCOC3)CC2)c(F)c1 (stereo not drawn) 12.2%
O=C(c1nnc(COc2ccc3c(c2)OCO3)n1Cc1ccccc1)N1CCC[C@@H]1c1ccc(Br)cc1 -0.303%
CN1C[C@@H](NC(=O)NC2CCCCC2)C[C@H]1c1nc(-c2cccnc2)no1 8.16% [at 57.5 µM]
O=C(C1CCCC1)N1CCC(C(=O)N2CCC(c3nc4ccncc4[nH]3)C2)CC1 (stereo not drawn) 1.95%
CN(C)S(=O)(=O)N1CCc2c(nc3cc(-c4ccccc4)[nH]n3c2=O)C1 14.3%
CN1CCN(c2ccc(-c3nccc4c(=O)cc(N(C)C5CCOCC5)oc34)cn2)CC1 11.5% [at 57.5 µM]
CCN(CC)C(=O)[C@@H]1CCCN1C1(C(=O)NC)COC1 2.09% [at 77.1 µM]
CCc1nc2c(=O)n(CC(=O)NCCC3=CCCCC3)nc(C)c2s1 11.1%
CN(C)[C@@H]1[C@@H](NS(=O)(=O)c2cccc3c2OCCO3)[C@H]2CCO[C@H]21 18.7%
COc1cc(F)ccc1-c1nc(-c2c(C)noc2C)cc2[nH]c(C)cc12 4.34% [at 57.5 µM]
CN1CCN(C(=O)c2nn(C)c3c2CCCC3)CC12CCNC(=O)CC2 (stereo not drawn) 10.2%
Cc1ccc(-c2nc(CN3CCCC3=O)no2)cc1 6.38%
Cc1nc2c(c(NC3CC3)n1)CCN(C(=O)CCc1cccnc1)CC2 4.41%
CCCn1cc(S(=O)(=O)N2C[C@H](C3CC3)[C@@H](N)C2)cn1 -2.68%
O=C(C1CC1)N(C1CCOCC1)C1CCN(S(=O)(=O)C2CC2)CC1 11.3%
CCc1noc(-c2cn(C3CCN(C(=O)c4cc(Cl)ccc4F)CC3)nn2)n1 6.36%
Cn1cc(C(=O)NC2CC(c3cc(N4CCOCC4)ncn3)C2)cn1 (stereo not drawn) 0.983%
Cc1ncc(C(=O)N[C@H]2CC[C@H]2NC2CCCC2)c(-c2ccccc2)n1 -0.554%

A draw from above in order of number of heavy atoms, rising:
Activity % (negative = inhibition), inactive:
CCCn1cc(S(=O)(=O)N2C[C@H](C3CC3)[C@@H](N)C2)cn1 -2.68%
O=C([C@@H]1C[C@H](Oc2cccnc2)CN1S(=O)(=O)c1cccs1)N1CCCC1 4.57%
CN1CCN(c2ccc(-c3nccc4c(=O)cc(N(C)C5CCOCC5)oc34)cn2)CC1 11.5% [at 57.5 µM]
